No constants are given. Whether binding was seen depends on the method and setting. Binding seen in cells or lysates may run through a third protein. Some entries that bind do so weakly or less than the wild type. For part of these data: Tags and fused reporters may be left off the sequences shown.
What was measured:
Flag-β-TrCP1 = Flag-β-TrCP1 (UniProt Q9Y297); experiment: co-IP; immunoprecipitation of Flag-β-TrCP1 and HA-SMAD4 mutants from transfected cells; immunoblot
[1] = target: SIRT7 (as used in Supplementary Figs 7d, 7e and 10g) (UniProt Q9NRC8); experiment: pull-down; Supplementary Fig. 7e: SIRT7, ΔN, ΔC and catalytic domain with SMAD4; the text says only 'pull down'
FLAG-SIRT7 = FLAG-SIRT7 (UniProt Q9NRC8); experiment: co-IP; HEK293 cells expressing ectopic FLAG-SIRT7 and HA-SMADs; anti-HA or anti-FLAG immunoprecipitation, immunoblot; lysis in 200 mM KCl, 20 mM Tris-HCl pH 7.9, 5 mM MgCl2, 10% glycerol, 0.2 mM EDTA, 0.1% NP-40; 4 °C overnight
HA-SMAD4 = HA-SMAD4 (UniProt Q13485); experiment: as above
HA-SMAD2 = HA-SMAD2 (UniProt Q15796); experiment: as above
HA-SMAD1 = HA-SMAD1 (UniProt Q15797); experiment: as above
[2] = target: endogenous SIRT7 (human (endogenous in BT549)) (UniProt Q9NRC8); experiment: co-IP; endogenous proteins in BT549 cells; anti-SIRT7 or anti-SMAD4 antibodies; lysis in 200 mM KCl, 20 mM Tris-HCl pH 7.9, 5 mM MgCl2, 10% glycerol, 0.2 mM EDTA, 0.1% NP-40
[3] = target: endogenous SMAD4 (human (endogenous in BT549)) (UniProt Q13485); experiment: as above
HA-SMAD3, P84022 = experiment: co-IP; HEK293 cells expressing ectopic FLAG-SIRT7 and HA-SMADs; anti-HA or anti-FLAG immunoprecipitation, immunoblot; lysis in 200 mM KCl, 20 mM Tris-HCl pH 7.9, 5 mM MgCl2, 10% glycerol, 0.2 mM EDTA, 0.1% NP-40; 4 °C overnight; details: remark: other sources report otherwise

Protein sequences, listed by entry. Tags and fused reporters are not part of them. Lines headed by an entry give the natural chain unless they say otherwise; changes in a name come on top.
UniProt Q9Y297: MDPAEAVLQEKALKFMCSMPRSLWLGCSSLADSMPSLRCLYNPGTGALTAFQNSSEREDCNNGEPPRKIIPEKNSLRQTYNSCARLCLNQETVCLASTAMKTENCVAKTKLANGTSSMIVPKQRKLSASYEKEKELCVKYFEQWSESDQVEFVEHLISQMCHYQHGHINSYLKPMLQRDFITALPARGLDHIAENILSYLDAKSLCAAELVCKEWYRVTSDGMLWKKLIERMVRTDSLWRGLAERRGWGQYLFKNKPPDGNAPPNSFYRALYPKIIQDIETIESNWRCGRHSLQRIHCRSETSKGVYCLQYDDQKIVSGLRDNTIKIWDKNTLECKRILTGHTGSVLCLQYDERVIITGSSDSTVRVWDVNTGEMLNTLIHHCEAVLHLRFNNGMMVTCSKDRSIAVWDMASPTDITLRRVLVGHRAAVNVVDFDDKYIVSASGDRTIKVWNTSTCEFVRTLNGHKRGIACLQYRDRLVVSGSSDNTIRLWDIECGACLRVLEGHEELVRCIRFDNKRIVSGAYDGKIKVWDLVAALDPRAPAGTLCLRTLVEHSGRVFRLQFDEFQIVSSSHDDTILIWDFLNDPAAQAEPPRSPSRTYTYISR
UniProt Q13485: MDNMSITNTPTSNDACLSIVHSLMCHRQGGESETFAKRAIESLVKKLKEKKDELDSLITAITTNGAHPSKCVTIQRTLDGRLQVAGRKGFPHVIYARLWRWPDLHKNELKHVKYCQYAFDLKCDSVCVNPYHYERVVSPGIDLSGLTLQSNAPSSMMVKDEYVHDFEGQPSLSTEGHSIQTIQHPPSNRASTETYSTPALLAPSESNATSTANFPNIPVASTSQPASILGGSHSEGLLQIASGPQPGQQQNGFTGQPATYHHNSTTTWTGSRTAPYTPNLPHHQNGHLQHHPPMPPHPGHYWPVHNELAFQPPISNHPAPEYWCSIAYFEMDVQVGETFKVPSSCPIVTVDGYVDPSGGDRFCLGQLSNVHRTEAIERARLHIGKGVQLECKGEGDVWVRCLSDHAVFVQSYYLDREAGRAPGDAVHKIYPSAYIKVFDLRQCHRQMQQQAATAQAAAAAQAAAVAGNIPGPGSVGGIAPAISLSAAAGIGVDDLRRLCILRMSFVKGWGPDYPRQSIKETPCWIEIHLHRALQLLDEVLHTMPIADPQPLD
UniProt Q15796: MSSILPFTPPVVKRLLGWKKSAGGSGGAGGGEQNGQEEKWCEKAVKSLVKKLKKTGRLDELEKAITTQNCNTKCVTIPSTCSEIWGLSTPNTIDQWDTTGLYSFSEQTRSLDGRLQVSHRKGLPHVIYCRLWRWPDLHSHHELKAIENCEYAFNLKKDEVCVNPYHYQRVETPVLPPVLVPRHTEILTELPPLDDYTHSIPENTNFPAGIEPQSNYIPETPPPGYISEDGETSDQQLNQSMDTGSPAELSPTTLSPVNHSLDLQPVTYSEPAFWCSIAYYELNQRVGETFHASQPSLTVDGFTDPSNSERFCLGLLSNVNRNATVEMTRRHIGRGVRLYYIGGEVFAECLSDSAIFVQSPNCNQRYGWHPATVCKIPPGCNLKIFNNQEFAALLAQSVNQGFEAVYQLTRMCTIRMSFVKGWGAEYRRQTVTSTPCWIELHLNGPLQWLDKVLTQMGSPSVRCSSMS
UniProt Q15797: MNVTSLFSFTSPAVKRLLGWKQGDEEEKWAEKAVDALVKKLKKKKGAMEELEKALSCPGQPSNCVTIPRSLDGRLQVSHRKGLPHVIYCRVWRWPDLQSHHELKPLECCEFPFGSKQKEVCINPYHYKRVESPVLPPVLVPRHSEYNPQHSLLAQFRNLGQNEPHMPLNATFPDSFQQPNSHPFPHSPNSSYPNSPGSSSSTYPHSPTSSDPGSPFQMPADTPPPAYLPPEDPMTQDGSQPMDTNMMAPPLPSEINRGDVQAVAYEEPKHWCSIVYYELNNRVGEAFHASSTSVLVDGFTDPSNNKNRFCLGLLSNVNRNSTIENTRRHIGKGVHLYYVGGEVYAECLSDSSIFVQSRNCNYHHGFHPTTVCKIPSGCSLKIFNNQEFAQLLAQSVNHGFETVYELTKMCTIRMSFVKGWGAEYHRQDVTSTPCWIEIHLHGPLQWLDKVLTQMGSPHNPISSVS

HA-SMAD4 K428R (from UniProt Q13485 1-552)
binding (Flag-β-TrCP1): binds

full-length SMAD4 (as used in Supplementary Figs 7d, 7e, 7f, 8a and 10g) (from UniProt Q13485 1-552)
binding [1]: binds

HA-SMAD4 (from UniProt Q13485 1-552)
binding (FLAG-SIRT7): binds

FLAG-SIRT7 (from UniProt Q9NRC8 1-400) (enzyme)
binding (HA-SMAD4): binds | binding (HA-SMAD2): no binding | binding (HA-SMAD1): no binding

endogenous SMAD4 (from UniProt Q13485 1-552)
binding [2]: binds

endogenous SIRT7 (from UniProt Q9NRC8 1-400) (enzyme)
binding [3]: binds

B1: GST-SIRT7 (enzyme, UniProt Q9NRC8 1-400, looked up)
chain: MAAGGLSRSERKAAERVRRLREEQQRERLRQVSRILRKAAAERSAEEGRLLAESADLVTELQGRSRRREGLKRRQEEVCDDPEELRGKVRELASAVRNAKYLVVYTGAGISTAASIPDYRGPNGVWTLLQKGRSVSAADLSEAEPTLTHMSITRLHEQKLVQHVVSQNCDGLHLRSGLPRTAISELHGNMYIEVCTSCVPNREYVRVFDVTERTALHRHQTGRTCHKCGTQLRDTIVHFGERGTLGQPLNWEAATEAASRADTILCLGSSLKVLKKYPRLWCMTKPPSRRPKLYIVNLQWTPKDDWAALKLHGKCDDVMRLLMAELGLEIPAYSRWQDPIFSLATPLRAGEEGSHSRKSLCRSREEAPPGDRGAPLSSAPILGGWFGRGCTKRTKRKKVT
notes: SIRT7; also called purified GST-SIRT7; recombinant GST-SIRT7; source: recombinant, purified
binding (HA-SMAD3, P84022): no binding
